For experiment [1], the target named is OTUD7B, ectopic (Flag-OTUD7B) (human) (UniProt Q6GQQ9). Nature of the experiment: co-IP; lysates of transfected cells (HEK293T where stated); precipitation with anti-Myc, anti-Flag or His-tag affinity resin, then blot; HEPES lysis buffer (20 mM HEPES pH 7.2, 50 mM NaCl, 0.5% Triton X-100); in Fig. 3a, b also with control, CUL4A or DET1 siRNA.
For experiment [2], the target named is Sox2 (Sex determining region Y-box 2), endogenous in NPCs (human (endogenous in NPCs)) (UniProt P48431). Nature of the experiment: co-IP; lysates of human NPCs; precipitation with control IgG, anti-Sox2 or anti-OTUD7B antibody and protein A/G agarose at 4 °C, then blot; HEPES lysis buffer (20 mM HEPES pH 7.2, 50 mM NaCl, 0.5% Triton X-100).

The chains behind the UniProt entries cited, without tags or fusion partners.
UniProt Q6GQQ9: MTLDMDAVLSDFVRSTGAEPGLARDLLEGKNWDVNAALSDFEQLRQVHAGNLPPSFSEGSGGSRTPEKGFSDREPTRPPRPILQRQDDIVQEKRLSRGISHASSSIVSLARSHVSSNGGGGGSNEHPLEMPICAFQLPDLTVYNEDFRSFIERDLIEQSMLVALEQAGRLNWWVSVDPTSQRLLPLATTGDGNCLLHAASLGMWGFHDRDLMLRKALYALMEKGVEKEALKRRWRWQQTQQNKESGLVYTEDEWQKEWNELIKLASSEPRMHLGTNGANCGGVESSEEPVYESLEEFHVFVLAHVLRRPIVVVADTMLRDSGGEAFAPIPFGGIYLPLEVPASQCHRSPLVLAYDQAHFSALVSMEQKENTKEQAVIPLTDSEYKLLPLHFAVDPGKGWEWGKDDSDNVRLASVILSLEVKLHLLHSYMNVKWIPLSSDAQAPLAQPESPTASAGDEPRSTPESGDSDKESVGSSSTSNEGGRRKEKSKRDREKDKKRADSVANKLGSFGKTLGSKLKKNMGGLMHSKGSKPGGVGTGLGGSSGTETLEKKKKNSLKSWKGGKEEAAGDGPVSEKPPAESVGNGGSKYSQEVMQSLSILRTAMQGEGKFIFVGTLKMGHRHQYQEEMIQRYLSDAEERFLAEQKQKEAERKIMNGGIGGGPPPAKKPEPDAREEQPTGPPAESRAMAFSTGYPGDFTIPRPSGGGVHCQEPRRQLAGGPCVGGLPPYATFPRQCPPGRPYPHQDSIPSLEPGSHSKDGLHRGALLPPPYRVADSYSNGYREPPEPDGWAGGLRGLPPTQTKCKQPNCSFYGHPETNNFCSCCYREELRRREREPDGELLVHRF
UniProt P48431: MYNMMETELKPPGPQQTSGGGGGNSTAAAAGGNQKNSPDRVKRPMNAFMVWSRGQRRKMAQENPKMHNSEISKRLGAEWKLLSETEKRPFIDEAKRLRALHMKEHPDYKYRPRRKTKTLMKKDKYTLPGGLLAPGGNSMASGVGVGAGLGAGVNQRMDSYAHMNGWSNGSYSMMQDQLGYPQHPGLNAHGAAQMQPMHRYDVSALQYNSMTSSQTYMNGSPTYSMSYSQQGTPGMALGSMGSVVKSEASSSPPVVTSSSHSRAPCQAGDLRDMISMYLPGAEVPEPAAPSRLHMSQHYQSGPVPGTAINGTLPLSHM

These results are taken from paper PMC6220269, “Dynamic ubiquitylation of Sox2 regulates proteostasis and governs neural progenitor cell differentiation” (Nature Communications, 2018).

These are yes or no findings as the source states them, for the method shown. Binding seen in cells or lysates may run through a third protein. Some binding calls cover weakened binding; strength is not graded here.

Consider Myc-Sox2 (from UniProt P48431 1-317), for which the binding result in experiment [1] was “binds”.
In the case of “OTUD7B (OTU domain-containing protein 7B), endogenous in NPCs (from UniProt Q6GQQ9 1-843) (enzyme)”, the binding entry in experiment [2] was “binds”.
